According to PubChem BioAssay AID504444 (National Center for Advancing Translational Sciences (NCATS), 2011):
Where “and” joins values, the source holds several entries; their conditions need not be identical. Equal entries are not always repeated. About 7,500 (2.1%) of roughly 360,000 compounds were called active. This list was built around the results that the source calls inconclusive (neither active nor inactive); the mix of calls is not that of the screen. The call rests on the fitted dose curve; in most records, active means well fitted inhibition curve with a large enough effect; inconclusive means small, poorly fitted or top-dose-only effect, or effect the other way; inactive means flat fitted curve, though single readings scatter. Potencies beside an inconclusive call are fits to weak or partial responses and may not hold up.

Assay: Nrf2 qHTS screen for inhibitors; further: nearly all actives have a fitted effect of over 60% in size
Conditions: A549 ARE-Fluc reporter, luciferase luminescence, 18-24 h; activity change, negative = inhibition: at 46 µM (top of the series)
Method in brief: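 A549 ARE_Fluc cells (5000/well, 5% FBS OPTI-MEM) pre-incubated 2 h, then treated with compounds 18-24 h at 37C/5% CO2 in concentration-response. CellTiter-Fluor viability read first; BugLite luciferase luminescence after 15 min at room temperature gives Nrf2 activity.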
On the % scale 0 is the no-effect control and ±100 the full control effect; potency means the concentration at half of the fitted maximal effect.

| SMILES | Potency | activity change, negative = inhibition |
| --- | --- | --- |
| Cc1ccc(NC(=O)c2cccs2)cc1 | inconclusive: 6.51 µM [activator, single point] | – |
| COCCNC(=O)Cn1c(=O)n(CCCCCC(=O)NCc2ccccc2Cl)c(=O)c2sccc21 | – | inactive: 12.3% |
| Cc1cc(=O)oc2cc(OC(=O)CCN3C(=O)c4ccccc4C3=O)ccc12 | – | inactive: 5.42% |
| CC(=O)Nc1cccc(OCc2cccc(C3Nc4ccccc4C(=O)N3Cc3ccco3)c2)c1 (configuration not stated) | inconclusive: 2.91 µM [activator, single point] | – |
| Cc1ccc(N2CN=C(c3ccccc3)NC2=S)cc1 | inconclusive: 18.4 µM [activator, single point] | – |
| CC(=O)Nc1ccc(NC(=O)COC(=O)COc2ccc3ccccc3c2)cc1 | inconclusive: 14.6 µM [activator, partial curve, poor fit] | – |
| CC[C@H](C)[C@H]1O[C@]2(CC[C@@H]1C)C[C@@H]1C[C@@H](CC=C(C)[C@@H](O[C@H]3C[C@H](OC)[C@@H](O[C@H]4C[C@H](OC)[C@@H](O)[C@H](C)O4)[C@H](C)O3)[C@@H](C)C=CC=C3CO[C@@H]4[C@H](O)C(C)=C[C@@H](C(=O)O1)[C@]34O)O2 | active: 5.8 µM | – |
| CC(C)(C)c1ccc(C(=O)NC(=S)NCc2cccnc2)cc1 | inconclusive: 29.1 µM [falling, single point] | – |
| Cc1cccc(Cn2c(SCc3ccc(C(=O)NCc4ccccc4F)cc3)nc3ccncc32)c1 | inconclusive: 14.6 µM [falling, partial curve, poor fit] | – |
| CC(CN1CCOCC1)OC(=O)/C=C/c1ccccc1 (configuration not stated) | inconclusive: 18.4 µM [activator, partial curve, poor fit] | – |
| COC(=O)c1c(-c2c(Cl)cccc2Cl)noc1NC(=O)NN1CCOCC1 | inconclusive: 0.461 µM [activator, full curve, poor fit] | – |
| Cc1oc2ncn(CC(C)C)c(=O)c2c1C(=O)NCCc1ccccc1 | inconclusive: 5.8 µM [activator, partial curve, poor fit] | – |
| COc1ccc(N2CCN(C(=O)CCc3ccc(S(=O)(=O)NC(C)(C)C)cc3)CC2)cc1 | inconclusive: 29.1 µM [falling, single point] | – |
| CCC(=O)OCCNc1nc(-c2ccccc2)nc2ccccc12 | – | inactive: 10.9% |
| O=C(Nc1ccc2c(c1)OCO2)N1CCN(C(=O)C2CCCO2)CC1 (configuration not stated) | inconclusive: 7.31 µM [falling, single point] | – |
| COc1ccc(CSc2nc(O)cc(=O)n2CC(C)C)cc1F | inconclusive: 2.06 µM [falling, partial curve] | – |
| CCc1nc2cccnc2n1-c1ccc(CC(=O)Nc2c(C)cccc2C)cc1 | inconclusive: 4.61 µM [activator, single point] | – |
| O=C(Nc1ccc2c(c1)OCCO2)c1cnc2ccccn2c1=O | inconclusive: 16.4 µM [activator, partial curve, poor fit] | – |
| COc1ccccc1NS(=O)(=O)c1ccc(C)c(C(=O)NCC(c2ccco2)N2CCCCC2)c1 (configuration not stated) | inconclusive: 23.1 µM [falling, partial curve, poor fit] | – |
| COc1ccccc1C(=O)Nn1cnc2ccccc2c1=O | inconclusive: 5.8 µM [activator, full curve] | – |
| COc1ccc(Nc2nccc(N(C)C)c2C#N)cc1 | inconclusive: 32.6 µM [activator, single point] | – |

| SMILES | Potency | activity change, negative = inhibition |
| --- | --- | --- |
| COc1ccccc1N(C)S(=O)(=O)c1ccc(C(=O)NCC2CCCCC2)cc1 | inconclusive: 29.1 µM [falling, single point] | – |
| Cn1nnnc1Sc1ncnc2scc(-c3cc4ccccc4o3)c12 | inconclusive: 29.1 µM [falling, single point] and inconclusive: 20.6 µM [falling, single point] | – |
| Cc1ccc(C(=O)c2no[n+]([O-])c2C(=O)c2ccc(C)cc2)cc1 | – | inactive: 2.06% |
| Clc1ccc(CSc2snnc2-c2ccccc2)cc1 | inconclusive: 2.91 µM [falling, full curve, poor fit] | – |
| COCCCNC(=O)c1cnc2sc(N3CCCCCC3)nn2c1=O | – | inactive: 17.6% |
| O=C(OCC12CC3CC(CC(C3)C1)C2)c1ccc(NCc2cc(O)ccc2O)cc1 | inconclusive: 29.1 µM [falling, single point] | – |
| Cc1cccc(NC(=O)c2onc3c2CCCC3)n1 | inconclusive: 1.3 µM [activator, partial curve] | – |
| Cc1ccc(NC2=C/C(=N/S(=O)(=O)c3cccs3)c3ccccc3C2=O)cc1 | inconclusive: 29.1 µM [falling, single point] | – |
| COc1ccc(C(=O)Nc2ccc(Br)cc2F)cc1S(=O)(=O)N1CCCC1 | inconclusive: 20.6 µM [falling, single point] | – |
| Oc1ccc(/C(Cc2ccccn2)=N\Nc2ccccc2)c(O)c1 | inconclusive: 29.1 µM [falling, single point] | – |
| COc1cc(OC)c(C(=O)O/N=C(\N)c2ccccn2)cc1OC | inconclusive: 2.06 µM [falling, partial curve, poor fit] | – |
| COc1ccc(N(C(=O)c2cnccn2)C(C(=O)NCc2ccccc2)c2ccc(O)cc2)cc1 (configuration not stated) | inconclusive: 13 µM [activator, partial curve] | – |
| CCCN(CC(=O)Nc1ccccc1OC)C(=O)c1cccc(S(=O)(=O)NCc2ccccc2)c1 | inconclusive: 1.46 µM [falling, partial curve, poor fit] | – |
| COc1cc([N+](=O)[O-])ccc1NC(=O)Nc1ccc(C(=O)N2CCCC2)cc1 | inconclusive: 9.2 µM [falling, partial curve] | – |
| Cc1c(C)n(Cc2ccccc2)c2ncnc(Cl)c12 | inconclusive: 23.1 µM [falling, single point] | – |
| Cc1cccc(-n2ncc(C(=O)N3CCN(c4ccc(C)cc4C)CC3)c2C2CCN(C(=O)OC(C)(C)C)CC2)c1 | inconclusive: 6.51 µM [activator, partial curve, poor fit] | – |
| COc1ccc(N=c2oc3cc(O)ccc3cc2C(=O)NCC2CCCO2)c(OC)c1 (configuration not stated) | – | inactive: -16% |
| CN(CC(=O)Nc1ccccc1Br)C(=O)CN1CCN(Cc2cccc(Cl)c2)CC1 | inconclusive: 23.1 µM [falling, single point] | – |
| Cc1cc(N2CCN(C)CC2)nc2ccc(NC(=O)Nc3cccc(Cl)c3)cc12 | – | inactive: -17.5% |
| O=C(NC1CCCCC1)N1CCN(c2ccc(Cl)cc2)CC1 | inconclusive: 14.6 µM [falling, partial curve] | – |
| COc1nc(-c2ccccc2)nnc1-c1ccccc1 | inconclusive: 9.2 µM [activator, partial curve] | – |

Part of the list above in order of length of the SMILES, largest number first.

| SMILES | Potency | activity change, negative = inhibition |
| --- | --- | --- |
| Cc1cccc(-n2ncc(C(=O)N3CCN(c4ccc(C)cc4C)CC3)c2C2CCN(C(=O)OC(C)(C)C)CC2)c1 | inconclusive: 6.51 µM [activator, partial curve, poor fit] | – |
| O=C(OCC12CC3CC(CC(C3)C1)C2)c1ccc(NCc2cc(O)ccc2O)cc1 | inconclusive: 29.1 µM [falling, single point] | – |
| Cc1cc(N2CCN(C)CC2)nc2ccc(NC(=O)Nc3cccc(Cl)c3)cc12 | – | inactive: -17.5% |
| COCCCNC(=O)c1cnc2sc(N3CCCCCC3)nn2c1=O | – | inactive: 17.6% |

(further entries)

| SMILES | Potency | activity change, negative = inhibition |
| --- | --- | --- |
| Cc1ccsc1CN(C(=O)c1oc2ccc(Br)cc2c1C)C1CCS(=O)(=O)C1 (configuration not stated) | inconclusive: 29.1 µM [falling, single point] | – |
| CCOc1ccc(Nc2c(S(=O)(=O)c3ccc(Cl)cc3)cnc3ccc(OCC)cc23)cc1 | inconclusive: 18.4 µM [falling, partial curve] | – |
| Cc1cc(-c2ccc(NS(=O)(=O)c3ccccc3)c(C)c2)ccc1NS(=O)(=O)c1ccccc1 | inconclusive: 4.11 µM [falling, full curve, poor fit] | – |
| CCOC(=O)C(C)CC(C)C(=O)N1CCOCCOCCN(C(=O)C(C)CC(C)C(=O)OCC)CCOCC1 (configuration not stated) | – | inactive: -19.9% |
| Cc1ccccc1Nc1nn2c(=O)c3ccc(C(=O)NCCc4ccc(Cl)cc4)cc3nc2s1 | – | inactive: -7.63% |
| Cc1ccc(S(=O)(=O)N2CCC(=O)N(C(COCc3ccccc3)Cc3ccccc3)CC2)cc1 (configuration not stated) | inconclusive: 16.4 µM [falling, partial curve, poor fit] | – |
| CC(C)C1C(=O)Nc2ccc(S(=O)(=O)NCCc3ccc(Cl)cc3)cc21 (configuration not stated) | inconclusive: 25.9 µM [falling, partial curve, poor fit] | – |
| CC1(C)N=C(c2ccccc2)C(=O)N1 | inconclusive: 29.1 µM [activator, single point] | – |
| Cc1ccc(C(NC(=O)C(C)C)c2cc([N+](=O)[O-])c3cccnc3c2O)cc1 (configuration not stated) | active: 18.4 µM | – |
| COc1ccccc1OCc1csc(N)n1 | inconclusive: 7.31 µM [activator, partial curve, poor fit] | – |
| CSc1sc(C(=O)N2CCCCC2)c(-c2cccs2)c1C#N | – | inactive: -3.72% |
| COc1ccc(NC(=O)c2ccc3nccnc3c2)cc1 | inconclusive: 8.2 µM [activator, partial curve] | – |
| Cc1ccccc1C(=O)N1c2ccccc2OCC1C(C)(C)C (configuration not stated) | inconclusive: 29.1 µM [falling, single point] | – |
| COc1ccc2ccccc2c1CNCc1ccccn1 | inconclusive: 20.6 µM [activator, single point] | – |
| Cc1ccc(S(=O)(=O)Nc2cc3c(cc2NCc2ccccc2)n(C)c(=O)n3C)cc1 | inconclusive: 10.3 µM [falling, partial curve] | – |
| O=C(Nc1nc(-c2cccs2)cs1)C1=COCCO1 | inconclusive: 2.06 µM [activator, partial curve, poor fit] | – |
| CCOC(=O)COc1c(C=O)cc(Br)cc1OC | inconclusive: 0.0052 µM [falling, full curve, poor fit] | – |
| N/C(=N\OC(=O)c1ccc2c(c1)OCO2)c1cccc([N+](=O)[O-])c1 | inconclusive: 2.59 µM [activator, full curve, poor fit] | – |
| O=C(N/N=C/c1sc(N2CCOCC2)nc1-c1ccccc1)c1cccc(S(=O)(=O)N2CCCC2)c1 | active: 2.59 µM | – |
| COc1ccc(-c2cc(C)no2)cc1S(=O)(=O)N(C)c1cccc(C)c1 | inconclusive: 18.4 µM [falling, partial curve] | – |
